In patent US10406122B2 (priority 2011, dated 2019):
Structures can show the parent of a compound that is named as a salt. Where two headings read alike, the source gives them in different places. At least one structure is not confirmed: it was looked up by name or label, or the drawing left a doubt.

Tests used:
[1] = test system: patients undergoing abdominal surgery; details: cited from earlier work
[2] = test system: patients undergoing TKA or THA; test: Example 2: open label study of Tramadol IV in Total knee Arthroplasty or Total Hip Arthroplasty
[3] = test system: patients undergoing major abdominal gynecologic surgery; details: cited from earlier work; for patients in whom tramadol was ineffective as pain relief: within 2 hours of beginning of treatment
[4] = test system: patients undergoing abdominal surgery; details: within the first 90 minutes of treatment; cited from earlier work

## COc1cccc([C@]2(O)CCCC[C@H]2CN(C)C)c1 (racemic) [Tramadol, (±)cis-2-[(dimethylamino)methyl]-1-(3-methoxyphenyl) cyclohexanol hydrochloride]
[1]; bolus group
  patients assessing pain relief as excellent or good: 65.6%
  patients reporting inadequate pain relief: 7.5%
  patients requiring two or more boluses: 59.7%
[1]; infusion group (12 mg/h for 24 hours)
  patients assessing pain relief as excellent or good: 76.5%
[1]; infusion group
  patients reporting inadequate pain relief: 4.4%
  patients requiring two or more boluses: 30.8%
[2]; 50 mg IV group (discontinued)
  response to regimen: unsatisfactory responses
[2]; 100 mg IV four times daily
  efficacy in postoperative pain in THA and TKA: effective in relieving postoperative pain
[3]; infusion group 15 mg/h
  less tramadol on demand than saline infusion group: 60%
[3]; bolus group
  patients in whom tramadol was ineffective as pain relief: 20%
[3]; infusion group
  patients in whom tramadol was ineffective as pain relief: 6%
[4]
  responder rate (no or slight pain): 72.6%
